Reference: US20230095004

Chains of the proteins cited; added tags and fusions are not shown. Chains listed by the source or under a name are the forms on record and can include a tag or linker.
UniProt P15692, other isoform, or with tags, fused parts or gaps: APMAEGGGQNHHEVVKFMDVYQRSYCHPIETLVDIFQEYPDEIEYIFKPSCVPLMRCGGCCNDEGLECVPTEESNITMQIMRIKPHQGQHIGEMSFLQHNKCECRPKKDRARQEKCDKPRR
VEGF-165 (VEGF-A) (Homo sapiens), one chain, as listed by the source: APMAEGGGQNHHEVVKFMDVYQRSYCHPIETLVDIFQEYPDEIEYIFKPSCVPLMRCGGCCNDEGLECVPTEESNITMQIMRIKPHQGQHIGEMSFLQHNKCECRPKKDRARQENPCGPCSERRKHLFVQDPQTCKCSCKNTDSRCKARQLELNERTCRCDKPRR

Key:
[1] = system: VEGF-165 (VEGF-A) (Homo sapiens); experiment: competition with a labelled probe; settings: purified recombinant protein
[2] = system: VEGF-165 (VEGF-A) (Homo sapiens); experiment: flow cytometry; settings: purified recombinant protein
[3] = target: VEGF-121 (VEGF-A) (Homo sapiens) (UniProt P15692); experiment: flow cytometry; settings: 2'-F all nucleotides; PBSMCT, 37 C; purified recombinant protein; label: biotin; variant of AMS0433.0
[4] = target: T1, Angiopoietin-2 (Ang2) (Homo sapiens) (UniProt O15123); experiment: competition with a labelled probe; settings: 2'-F; hexaethylene glycol (H) linker replacing UUUUA after UGCAUGCA [hexaethylene glycol (H) linker between 8 and 9, left out (replaces parent UUUUA); 2'-F (positions not stated)]; Ang2/Tie2 competition (column printed Tier2); purified recombinant protein; protein details: His tag, R&D Systems 623-AN; letters built from the parent sequence and the stated change; variant of AMSB107
T1 sequence (looked up, limits assumed): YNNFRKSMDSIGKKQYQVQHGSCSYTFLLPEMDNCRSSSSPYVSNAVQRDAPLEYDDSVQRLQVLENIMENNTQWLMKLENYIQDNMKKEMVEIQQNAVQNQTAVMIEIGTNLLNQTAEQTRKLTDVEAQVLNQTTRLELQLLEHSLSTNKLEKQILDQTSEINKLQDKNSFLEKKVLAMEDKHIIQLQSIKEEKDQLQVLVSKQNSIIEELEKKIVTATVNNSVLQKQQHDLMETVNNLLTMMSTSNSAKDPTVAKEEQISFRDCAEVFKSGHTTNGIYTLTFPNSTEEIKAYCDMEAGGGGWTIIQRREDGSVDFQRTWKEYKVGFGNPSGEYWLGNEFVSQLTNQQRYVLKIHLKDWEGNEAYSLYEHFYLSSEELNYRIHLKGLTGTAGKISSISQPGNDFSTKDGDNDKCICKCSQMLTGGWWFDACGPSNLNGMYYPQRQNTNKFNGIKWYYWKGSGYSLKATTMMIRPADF

[5] = 2'-F all nucleotides, variant of AMSB107
[6] = 2'-F all, VEGF/VEGFR2 inhibition, protein details: R&D Systems 293-VE-050, variant of AMSB107
[7] = 2'-F all nucleotides, PBSMCT, 37 C, label: biotin, variant of AMS0433.0
[8] = 2'-F all, protein details: R&D Systems 293-VE-050, variant of AMS0433.0
[9] = 2'-F, H = hexaethylene glycol linker, VEGF/VEGFR2 inhibition, protein details: R&D Systems 293-VE-050, variant of AMSB107

Question: “UGCAUGCAUUUUACCAGUGAGUCGGAUCUCCGCAUAGAUAAGCCAACAAACGUACAUUCUCUGUUAGUAUUUUCUGCG [AMSB107.23]” was tested. Which pIC50 ([1]; 2'-F, 5' H = hexaethylene glycol linker, VEGF/VEGFR2 inhibition, protein details: R&D Systems 293-VE-050, variant of AMSB107) did it give?
Answer: Its pIC50 is 10.40.

Question: “UGCAUGCACAGUGAGUCGGAUCUCCGCAUAGAUAAGCCAACAAACGUACAUUCUCUGUUAGUAUUUUCUGCG [AMSB107.7]” was tested. Which pKd [2, 5] did it give?
Answer: Its pKd is under 7.00.

Question: What about the pIC50 [1, 6] of the same sequence?
Answer: The pIC50 was under 7.00.

Question: With “UGCAUGCACCAGUGAGUCGGAUCUCCGCAUAGAUAAGCCAACAAACGUACAUUCUCUGUUAGUAUUUUCUGCG [AMSB107.27]” as the sequence, how does the pIC50 ([1]; 2'-F, OOOO linker as printed, VEGF/VEGFR2 inhibition, protein details: R&D Systems 293-VE-050, variant of AMSB107) read?
Answer: Its pIC50 is 10.43.

Question: With “UGAGCUCGGAUGCUCCGCAUAUCUGCG [AMS0433.12]” as the sequence, how does the pKd [3] read?
Answer: Its pKd is under 7.00.

Question: What about the pKd [2, 7] of the same sequence?
Answer: The pKd was under 7.00.

Question: And the pIC50 [1, 8]?
Answer: Its pIC50 is under 7.00.

Question: What does the source list for “UGCAUGCACCAGUGAGUCGGAUCUCCGCAUAGAUAAGCCAACAAACGUACAUUCUCUGUUAGUAUUUUCUGCG [AMSB107.P6]”?
Answer: pIC50 [4]: 10.46; pIC50 ([1]; 2'-F, hexaethylene glycol (H) linker replacing UUUUA after UGCAUGCA [hexaethylene glycol (H) linker between 8 and 9, left out (replaces parent UUUUA), 2'-F (positions not stated)], VEGF receptor competition, letters built from the parent sequence and the stated change, variant of AMSB107): 10.41

Question: How did the pIC50 [1, 9] turn out when “UGCAUGCACCAGUGAGUCGGAUCUCCGCAUAGAUAAGCCAACAAACGUACAUUCUCUGUUAGUAUUUUCUGCG [AMSB107.22]” was run?
Answer: The pIC50 was 10.36.

Question: With “UGCAUGCACCAGUGAGUCGGAUCUCCGCAUAGAUAAGCCAACAAACGUACAUUCUCUGUUAGUAUUUUCUGCG [AMSB107.26]” as the sequence, how does the pIC50 ([1]; 2'-F, OO linker as printed, VEGF/VEGFR2 inhibition, protein details: R&D Systems 293-VE-050, variant of AMSB107) read?
Answer: Its pIC50 is 10.36.

Question: With “UGCAUGCAUUUUACCAGUGAGUCGGAUCUCCGCAUAGAUAAGCCAACAAAUUCUCUGUUAGUAUUUUCUGCG [AMSB107.24]” as the sequence, how does the pIC50 [1, 9] read?
Answer: The pIC50 was 10.17.

Question: What does the source list for UGAGUCGGAUCUCCGCAUAUCUGCG [AMS0433.9]?
Answer: pKd [3]: < 7.00; pKd [2, 7]: < 7.00; pIC50 [1, 8]: < 7.00

Question: How did the pIC50 [1, 9] turn out when “UGCAUGCAUUUUACCAGUGAGUCGGAUCUCCGCAUAGAUAAGCCAACAAACGUUCUCUGUUAGUAUUUUCUGCG [AMSB107.25]” was run?
Answer: The pIC50 was 10.21.

Question: With “UGCAUGCAUUUUACCAGUGAGUCGGAUCUCCGCAUAGAUAAGCCAACAAACGUACAUUCUCUGUUAGUAUUUUCUGCG [AMSB107.19]” as the sequence, how does the pKd ([2]; 2'-F, LNA at selected positions of the VEGF consensus as printed, variant of AMSB107) read?
Answer: The pKd was under 7.00.

Question: And the pIC50 ([1]; 2'-F with LNA (L) at positions as printed, VEGF/VEGFR2 inhibition, protein details: R&D Systems 293-VE-050, variant of AMSB107)?
Answer: Its pIC50 is under 7.00.

Question: What does the source list for “UGCAUGCAUUUUACCAGUGAGUCGGAUCUCUUUCGCAUAGAUAAGCCAACAAACGUACAUUCUCUGUUAGUAUUUUCUGCG [AMSB107.16]”?
Answer: pKd [2, 5]: < 7.00; pIC50 [1, 6]: < 7.00

pIC50, pKd: −log10 of the molar value. For some assays here: For at least one entry, the source does not settle the construct or the ends of the probe. For some assays here: Tags and fusion partners may be left off the protein sequences shown.
